PubChem BioAssay AID504808 – Drosophila RNAi Screening Center – 2011

Purpose: 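Genes whose loss lifts activity of an E2F-responsive reporter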 (primary screen)
Cell system: Drosophila S2 cells
Reagents: long dsRNA against Drosophila genes
Measured: 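Firefly luciferase driven by E2F sites, normalised to Renilla luciferase on the same minimal promoter, measured by plate reader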
Direction: E2F firefly: higher = more E2F reporter activity; Renilla normaliser: higher = more normaliser reporter signal
Call rule: 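Called active if the normalised E2F reporter went up by over 50%; the cutoff is arbitrary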
The screen tested about 21,000 reagents; this is an unselected part of those that have a named target and a result. Over the whole deposit, 18 (0.084%) are marked active. 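Raw counts without plate normalisation, one of two replicates; the ratio scores behind the calls were not deposited.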 Entries without a mark were called inactive. No sequences are given here. Not stated in the record: the amount of reagent, the time to read-out.

E2F firefly, rep 1	Renilla normaliser, rep 1	Target gene	amplicon
91394	4439	CG14418 (GeneID 31275)	DRSC18637
1.52e5	6435	sing (GeneID 32644)	DRSC19530
1.70e5	7239	CG42729 (GeneID 3885667)	DRSC10236
92844	2547	CG32814 (GeneID 318223)	DRSC17670
79169	2283	CG31437 (GeneID 318735)	DRSC13711
81066	4684	Cyp305a1 (GeneID 40161)	DRSC11126
77493	3255	Hsp110 (GeneID 39557)	DRSC11186
71520	3033	Fit1 (GeneID 38488)	DRSC08450
1.20e5	5756	CG31076 (GeneID 318582)	DRSC16017
1.45e5	5092	spag4 (GeneID 34581)	DRSC02973
1.44e5	6428	CG18545 (GeneID 41264)	DRSC15343
1.58e5	7269	CG13029 (GeneID 39886)	DRSC09909
82024	4458	CG12219 (GeneID 31572)	DRSC17829
1.05e5	4738	pdm2 (GeneID 34673)	DRSC02496
1.00e5	4262	pdm2 (GeneID 34673)	DRSC02497
1.24e5	4812	pdm2 (GeneID 34673)	DRSC03587
1.22e5	3730	CG34267 (GeneID 5740365)	DRSC07881
7718	816	CG1622 (GeneID 32282)	DRSC19745
92701	6384	CG9988 (GeneID 43388)	DRSC16587
86726	3561	ZnT41F (GeneID 35513)	DRSC04850
1.04e5	3866	Mcr (GeneID 44071)	DRSC03366
74465	6723	eIF3a (GeneID 40563)	DRSC12339
1.39e5	5756	roh (GeneID 246602)	DRSC04003
2.34e5	5878	dpr8 (GeneID 32387)	DRSC19406
1.17e5	5153	dpr8 (GeneID 32387)	DRSC19600
1.57e5	6348	dpr8 (GeneID 32387)	DRSC19938
1.55e5	6391	dpr8 (GeneID 32387)	DRSC19939
1931	1156	CG1909 (GeneID 43800)	DRSC17150
1.33e5	6629	Syt7 (GeneID 43783)	DRSC17130
60280	3483	Syt7 (GeneID 43783)	DRSC17159
1.12e5	4231	t-Grip128 (GeneID 317930)	DRSC07853
80791	3052	CG33306 (GeneID 2768915)	DRSC01899
66676	3240	Pka-R1 (GeneID 40305)	DRSC11674
69755	3282	Pka-R1 (GeneID 40305)	DRSC11875

Part of the list above, reduced to “Renilla normaliser, rep 1”:
Hsp110 (GeneID 39557) [DRSC11186]	3255
Fit1 (GeneID 38488) [DRSC08450]	3033
CG31076 (GeneID 318582) [DRSC16017]	5756
spag4 (GeneID 34581) [DRSC02973]	5092
